# Reference: paper PMC7455564
# Chains of the proteins cited; added tags and fusions are not shown.
# UniProt P09874: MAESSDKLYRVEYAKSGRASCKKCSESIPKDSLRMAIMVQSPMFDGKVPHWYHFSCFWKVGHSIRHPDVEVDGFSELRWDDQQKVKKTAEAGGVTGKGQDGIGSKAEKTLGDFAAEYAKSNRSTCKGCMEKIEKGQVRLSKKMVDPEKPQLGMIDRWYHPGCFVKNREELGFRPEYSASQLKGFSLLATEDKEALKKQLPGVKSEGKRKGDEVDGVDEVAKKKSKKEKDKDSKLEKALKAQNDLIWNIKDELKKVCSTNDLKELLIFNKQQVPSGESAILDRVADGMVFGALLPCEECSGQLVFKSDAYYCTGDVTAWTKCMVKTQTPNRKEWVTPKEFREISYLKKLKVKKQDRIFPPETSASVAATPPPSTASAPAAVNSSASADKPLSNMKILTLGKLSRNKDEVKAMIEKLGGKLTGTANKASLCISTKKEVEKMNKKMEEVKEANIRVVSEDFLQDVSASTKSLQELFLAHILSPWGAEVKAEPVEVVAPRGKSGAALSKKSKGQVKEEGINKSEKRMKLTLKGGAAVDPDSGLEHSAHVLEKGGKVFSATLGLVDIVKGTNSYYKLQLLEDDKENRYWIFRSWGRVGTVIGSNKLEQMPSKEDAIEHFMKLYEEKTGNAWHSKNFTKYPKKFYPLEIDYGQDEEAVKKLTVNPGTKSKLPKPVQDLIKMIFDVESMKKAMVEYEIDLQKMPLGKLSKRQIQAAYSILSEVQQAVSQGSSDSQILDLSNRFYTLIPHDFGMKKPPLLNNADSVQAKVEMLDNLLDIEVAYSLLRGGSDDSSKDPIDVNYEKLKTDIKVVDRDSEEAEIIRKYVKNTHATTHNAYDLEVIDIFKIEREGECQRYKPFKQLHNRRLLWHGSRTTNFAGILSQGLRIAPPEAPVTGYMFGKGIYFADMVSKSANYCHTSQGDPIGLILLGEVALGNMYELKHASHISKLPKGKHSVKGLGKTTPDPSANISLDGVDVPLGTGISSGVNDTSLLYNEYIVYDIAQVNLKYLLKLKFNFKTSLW
# These are yes or no findings as the source states them, for the method shown. For some of these results: Binding seen in cells or lysates may run through a third protein. Some binding calls cover weakened binding; strength is not graded here. For some of these results: Tags and fused reporters may be left off the sequences shown.
# T1: XRN2 (endogenous, HeLa) (human (endogenous in HeLa)) (UniProt Q9H0D6)
# T1 sequence: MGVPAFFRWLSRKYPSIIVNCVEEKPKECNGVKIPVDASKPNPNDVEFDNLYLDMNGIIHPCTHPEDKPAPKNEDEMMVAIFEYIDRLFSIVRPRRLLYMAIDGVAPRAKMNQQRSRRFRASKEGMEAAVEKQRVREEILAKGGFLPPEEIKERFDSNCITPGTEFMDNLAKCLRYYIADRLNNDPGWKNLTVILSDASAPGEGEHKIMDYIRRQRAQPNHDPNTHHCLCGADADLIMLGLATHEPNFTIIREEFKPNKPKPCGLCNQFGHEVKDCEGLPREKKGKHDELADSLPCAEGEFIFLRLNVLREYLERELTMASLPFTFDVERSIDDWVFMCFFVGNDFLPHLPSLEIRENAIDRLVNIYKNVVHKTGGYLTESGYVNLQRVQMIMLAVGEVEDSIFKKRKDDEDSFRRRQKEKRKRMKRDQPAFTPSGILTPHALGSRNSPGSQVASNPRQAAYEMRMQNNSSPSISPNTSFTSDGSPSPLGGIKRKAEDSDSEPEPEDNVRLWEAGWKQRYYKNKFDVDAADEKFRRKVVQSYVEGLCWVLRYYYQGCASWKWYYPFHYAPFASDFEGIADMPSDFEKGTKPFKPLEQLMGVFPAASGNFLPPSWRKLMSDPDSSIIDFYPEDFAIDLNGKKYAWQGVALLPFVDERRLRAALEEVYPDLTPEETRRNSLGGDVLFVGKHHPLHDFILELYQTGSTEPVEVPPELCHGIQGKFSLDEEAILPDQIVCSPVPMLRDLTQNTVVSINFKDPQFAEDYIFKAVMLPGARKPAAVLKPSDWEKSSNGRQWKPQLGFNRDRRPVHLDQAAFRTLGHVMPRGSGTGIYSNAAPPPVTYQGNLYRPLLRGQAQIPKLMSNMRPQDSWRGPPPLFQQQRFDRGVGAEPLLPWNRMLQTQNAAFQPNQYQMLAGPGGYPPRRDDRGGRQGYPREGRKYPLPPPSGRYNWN
# T2: recombinant XRN2 (purified) (human) (UniProt Q9H0D6)
# T2 sequence: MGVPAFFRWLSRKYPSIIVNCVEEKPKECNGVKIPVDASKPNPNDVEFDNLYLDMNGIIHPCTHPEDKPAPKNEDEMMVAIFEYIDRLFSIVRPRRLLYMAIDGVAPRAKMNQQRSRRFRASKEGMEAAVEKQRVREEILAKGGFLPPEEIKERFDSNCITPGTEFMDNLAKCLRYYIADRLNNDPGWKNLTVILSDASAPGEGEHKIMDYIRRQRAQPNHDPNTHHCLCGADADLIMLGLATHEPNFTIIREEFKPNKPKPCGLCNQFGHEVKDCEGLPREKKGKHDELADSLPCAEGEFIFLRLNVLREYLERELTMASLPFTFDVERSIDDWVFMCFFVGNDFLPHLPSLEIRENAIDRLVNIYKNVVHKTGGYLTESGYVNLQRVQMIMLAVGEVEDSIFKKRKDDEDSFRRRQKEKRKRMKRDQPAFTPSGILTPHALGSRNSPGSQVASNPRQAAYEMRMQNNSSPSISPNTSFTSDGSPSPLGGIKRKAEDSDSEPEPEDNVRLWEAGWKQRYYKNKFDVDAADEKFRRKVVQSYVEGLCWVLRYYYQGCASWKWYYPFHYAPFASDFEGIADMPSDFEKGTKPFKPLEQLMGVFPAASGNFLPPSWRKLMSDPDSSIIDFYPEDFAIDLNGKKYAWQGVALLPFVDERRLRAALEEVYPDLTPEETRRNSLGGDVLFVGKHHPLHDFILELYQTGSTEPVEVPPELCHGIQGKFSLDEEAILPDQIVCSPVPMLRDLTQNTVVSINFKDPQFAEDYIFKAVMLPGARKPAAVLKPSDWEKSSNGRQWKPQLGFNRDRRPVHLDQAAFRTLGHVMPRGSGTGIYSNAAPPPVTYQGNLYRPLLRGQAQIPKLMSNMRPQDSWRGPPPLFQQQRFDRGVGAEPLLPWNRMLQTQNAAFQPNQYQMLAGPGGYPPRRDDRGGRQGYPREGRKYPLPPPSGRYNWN
# T3: TAP-XRN2 (5′-3′-exoribonuclease 2 with a tandem affinity purification tag) (human) (UniProt Q9H0D6)
# T3 sequence: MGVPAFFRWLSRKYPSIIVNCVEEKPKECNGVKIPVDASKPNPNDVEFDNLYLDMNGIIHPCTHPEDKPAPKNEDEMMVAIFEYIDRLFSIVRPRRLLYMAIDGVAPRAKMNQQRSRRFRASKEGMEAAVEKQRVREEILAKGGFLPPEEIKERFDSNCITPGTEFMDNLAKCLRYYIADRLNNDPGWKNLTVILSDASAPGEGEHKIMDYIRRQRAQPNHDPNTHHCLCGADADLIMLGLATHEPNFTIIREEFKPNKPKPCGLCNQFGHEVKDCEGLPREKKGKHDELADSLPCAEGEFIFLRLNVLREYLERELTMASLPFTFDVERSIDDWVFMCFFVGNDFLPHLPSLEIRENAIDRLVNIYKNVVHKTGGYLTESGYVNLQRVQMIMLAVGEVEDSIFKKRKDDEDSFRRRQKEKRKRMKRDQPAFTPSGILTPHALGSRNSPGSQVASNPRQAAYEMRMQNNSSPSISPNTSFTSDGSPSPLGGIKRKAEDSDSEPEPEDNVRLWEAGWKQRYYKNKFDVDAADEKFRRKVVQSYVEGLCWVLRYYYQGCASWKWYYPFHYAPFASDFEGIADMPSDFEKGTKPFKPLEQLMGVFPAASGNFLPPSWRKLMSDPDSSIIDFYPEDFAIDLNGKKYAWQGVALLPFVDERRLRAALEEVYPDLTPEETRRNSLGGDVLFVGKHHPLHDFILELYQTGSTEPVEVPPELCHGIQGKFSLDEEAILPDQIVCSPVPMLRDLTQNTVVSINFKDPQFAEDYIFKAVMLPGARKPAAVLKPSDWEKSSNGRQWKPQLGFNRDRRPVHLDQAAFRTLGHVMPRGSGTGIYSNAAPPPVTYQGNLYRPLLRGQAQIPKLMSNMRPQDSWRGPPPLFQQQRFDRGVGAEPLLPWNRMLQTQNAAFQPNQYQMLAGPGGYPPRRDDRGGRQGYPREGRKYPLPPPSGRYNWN
# Columns and labels:
# [1] = target: T1, XRN2 (endogenous, HeLa) (human (endogenous in HeLa)); test: SEC; gel filtration chromatography of nuclease-treated HeLa whole cell lysate; fractions analysed by Western blot; co-elution in fractions #24–29
# [2] = target: T2, recombinant XRN2 (purified) (human); test: co-IP; purified XRN2 and Flag-PARP1 (5 µg each), IP with anti-XRN2 antibody, A/G plus agarose beads, overnight at 4 °C; beads as control; Western blot; both purified
# [3] = target: T3, TAP-XRN2 (5′-3′-exoribonuclease 2 with a tandem affinity purification tag) (human); test: co-IP; whole-cell lysate of HEK 293 T TAP-XRN2 cells in 1× TNE buffer (100 mM Tris–HCl pH 7.5, 150 mM NaCl, 0.1 mM EDTA, 0.1% NP-40), ~1 mg protein, 10 µg anti-XRN2 antibodies, A/G plus agarose beads, overnight at 4 °C; beads without antibody as control; Western blot
# [4] = target: recombinant Flag-PARP1 (purified) (UniProt P09874); test: co-IP; purified XRN2 and Flag-PARP1 (5 µg each), IP with anti-PARP1 antibody, A/G plus agarose beads, overnight at 4 °C; beads as control; Western blot; both purified
molecule,measurement,setting,value
"PARP1 (endogenous, HeLa) (from UniProt P09874 1-1014)",binding,[1],binds
recombinant Flag-PARP1 (purified) (from UniProt P09874 1-1014),binding,[2],binds
"NONO (p54(nrb)) (protein, UniProt Q15233 1-471) MQSNKTFNLEKQNHTPRKHHQHHHQQQHHQQQQQQPPPPPIPANGQQASSQNEGLTIDLKNFRKPGEKTFTQRSRLFVGNLPPDITEEEMRKLFEKYGKAGEVFIHKDKGFGFIRLETRTLAEIAKVELDNMPLRGKQLRVRFACHSASLTVRNLPQYVSNELLEEAFSVFGQVERAVVIVDDRGRPSGKGIVEFSGKPAARKALDRCSEGSFLLTTFPRPVTVEPMDQLDDEEGLPEKLVIKNQQFHKEREQPPRFAQPGSFEYEYAMRWKALIEMEKQQQDQVDRNIKEAREKLEMEMEAARHEHQVMLMRQDLMRRQEELRRMEELHNQEVQKRKQLELRQEEERRRREEEMRRQQEEMMRRQQEGFKGTFPDAREQEIRMGQMAMGGAMGINNRGAMPPAPVPAGTPAPPGPATMMPDGTLGLTPPTTERFGQAATMEGIGAIGGTPPAFNRAAPGAEFAPNKRRRY",binding,[3],binds
"recombinant XRN2 (purified) (protein, UniProt Q9H0D6 1-950) MGVPAFFRWLSRKYPSIIVNCVEEKPKECNGVKIPVDASKPNPNDVEFDNLYLDMNGIIHPCTHPEDKPAPKNEDEMMVAIFEYIDRLFSIVRPRRLLYMAIDGVAPRAKMNQQRSRRFRASKEGMEAAVEKQRVREEILAKGGFLPPEEIKERFDSNCITPGTEFMDNLAKCLRYYIADRLNNDPGWKNLTVILSDASAPGEGEHKIMDYIRRQRAQPNHDPNTHHCLCGADADLIMLGLATHEPNFTIIREEFKPNKPKPCGLCNQFGHEVKDCEGLPREKKGKHDELADSLPCAEGEFIFLRLNVLREYLERELTMASLPFTFDVERSIDDWVFMCFFVGNDFLPHLPSLEIRENAIDRLVNIYKNVVHKTGGYLTESGYVNLQRVQMIMLAVGEVEDSIFKKRKDDEDSFRRRQKEKRKRMKRDQPAFTPSGILTPHALGSRNSPGSQVASNPRQAAYEMRMQNNSSPSISPNTSFTSDGSPSPLGGIKRKAEDSDSEPEPEDNVRLWEAGWKQRYYKNKFDVDAADEKFRRKVVQSYVEGLCWVLRYYYQGCASWKWYYPFHYAPFASDFEGIADMPSDFEKGTKPFKPLEQLMGVFPAASGNFLPPSWRKLMSDPDSSIIDFYPEDFAIDLNGKKYAWQGVALLPFVDERRLRAALEEVYPDLTPEETRRNSLGGDVLFVGKHHPLHDFILELYQTGSTEPVEVPPELCHGIQGKFSLDEEAILPDQIVCSPVPMLRDLTQNTVVSINFKDPQFAEDYIFKAVMLPGARKPAAVLKPSDWEKSSNGRQWKPQLGFNRDRRPVHLDQAAFRTLGHVMPRGSGTGIYSNAAPPPVTYQGNLYRPLLRGQAQIPKLMSNMRPQDSWRGPPPLFQQQRFDRGVGAEPLLPWNRMLQTQNAAFQPNQYQMLAGPGGYPPRRDDRGGRQGYPREGRKYPLPPPSGRYNWN",binding,[4],binds
